Drawing on paper PMC7819943, “Rice protein-binding microarrays: a tool to detect cis-acting elements near promoter regions in rice”, this text covers binding signal for 23 sequences.

Chains of the proteins cited; added tags and fusions are not shown.
UniProt Q0JBA9, entry or part of it: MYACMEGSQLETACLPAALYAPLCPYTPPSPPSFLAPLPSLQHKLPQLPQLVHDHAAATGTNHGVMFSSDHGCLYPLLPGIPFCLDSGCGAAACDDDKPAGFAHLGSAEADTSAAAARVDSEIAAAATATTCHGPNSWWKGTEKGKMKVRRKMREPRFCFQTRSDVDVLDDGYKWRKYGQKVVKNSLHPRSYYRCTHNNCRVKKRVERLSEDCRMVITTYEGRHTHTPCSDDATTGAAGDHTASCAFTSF

The other results are listed elsewhere or left out.

For the experiment, the target named is OsWRKY34 (Oryza sativa, UniProt Q0JBA9 1-250). The experiment can be described thus: protein-binding microarray (RPBM); PBS, 2% BSA, 51.3 ng/ul salmon testes DNA, 50 uM zinc acetate, 200 nM TF, 25 C, 1 h; high values mean tight binding. As to conditions: protein: recombinant; tags: N-terminal polyhistidine and DsRed monomer fusion (pET32a); label: CyDye5-dUTP incorporated in the synthesized complementary strand; 3' TTTTT single-stranded linker to array surface; dsDNA, one strand shown. The essentials:
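The binding signal for each feature is its fluorescence intensity in arbitrary units. An Axon 4000B scanner was used to read a custom Agilent array that had been made double-stranded with Cy5-dUTP primer extension, blocked with 2% BSA, incubated at 25 °C for 1 h with 200 nM protein in PBS, 2% BSA, salmon testes DNA and 50 µM zinc acetate, and washed. The protein was an N-terminal polyhistidine–DsRed transcription factor fusion from E. coli BL21-CodonPlus, purified on Ni–NTA.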
As for “CATCGTATCGTAACTCCATAAACCTTACACCGCATCTTGTCGGAGTCACCTAGTGCAG”, the binding signal was 8040 fluorescence intensity (a.u.).

Regarding “GTTGCCAATTTTGCAGCACGGCTGATAATTGTGATTGGTCCGGAGTCACCTAGTGCAG”, the binding signal was 9000 fluorescence intensity (a.u.).

As for “TCCCGGAAGACGTCACACCACACCGCCATCGACTCCCTCGCGGAGTCACCTAGTGCAG”, the binding signal was 8950 fluorescence intensity (a.u.).

With “TACCTTCTAACTGCCGACCCACCTTCACGCAGCGGCCTCTCGGAGTCACCTAGTGCAG”, the binding signal is 13300 fluorescence intensity (a.u.).

As to “TTTTTATCAACGGTTACTGTTTCTACAATTTGTTTTTTCCCGGAGTCACCTAGTGCAG”, the binding signal is 8890 fluorescence intensity (a.u.).

For “AGCGATTCAATTGGTTAATTGTGTTGAAGTCTATTGTTGCCGGAGTCACCTAGTGCAG”, the binding signal was 8570 fluorescence intensity (a.u.).

Consider “TGTGCTATCTATGCTCGTTTTTTCTCAGTTTTTATTCAAACGGAGTCACCTAGTGCAG”, for which the binding signal was 8720 fluorescence intensity (a.u.).

Regarding “AATGTACATGTCGGTCCTCCTTACTTCTCATGGCAGCAATCGGAGTCACCTAGTGCAG”, the binding signal is 8350 fluorescence intensity (a.u.).

On to “GGCTCAGTTTATCTTGCATGGGAAGCTCTTAACAAATTCACGGAGTCACCTAGTGCAG”, for which the binding signal was 8470 fluorescence intensity (a.u.).

Consider “CCTGTAATCACATATCTTATGCTAGTCTTGCTTTTAACCTCGGAGTCACCTAGTGCAG”, for which the binding signal was 9710 fluorescence intensity (a.u.).

Consider “CACACTGTTCCTCTCGCTCGCTCGCTCGACGCCCGCCATGCGGAGTCACCTAGTGCAG”, for which the binding signal is 8230 fluorescence intensity (a.u.).

As for “GGAGGTGGTGGCGCGAGGGGAAGGTGGATGTGGCGGTGGCCGGAGTCACCTAGTGCAG”, the binding signal is 10700 fluorescence intensity (a.u.).

Regarding “TCTTAGGGTTAGGGTTTCGTCTATTCGTTGCCTTCCTCGCCGGAGTCACCTAGTGCAG”, the binding signal is 9090 fluorescence intensity (a.u.).

In the case of “CGCACAGCTGCACACCACCTTACGAGCTCGATGTCCTACACGGAGTCACCTAGTGCAG”, the binding signal was 8610 fluorescence intensity (a.u.).

On to “GTAAGCTCACATAATTTGTACTCATCCAAACTCACATAAACGGAGTCACCTAGTGCAG”, for which the binding signal is 9380 fluorescence intensity (a.u.).

As for “TCCTCTGCACACACCTTCCGGCGGCGCACCAGGCGGACTCCGGAGTCACCTAGTGCAG”, the binding signal was 10400 fluorescence intensity (a.u.).

For “GGCCACTTCCTCCCTCTCCCTGTGCATGCGCTCTCTTCCCCGGAGTCACCTAGTGCAG”, the binding signal is 9400 fluorescence intensity (a.u.).

Consider “TCTGATACTGTATGTGTTGCTTTCAGTTGGCCATCTATATCGGAGTCACCTAGTGCAG”, for which the binding signal was 10100 fluorescence intensity (a.u.).

As for “CCTTCCTTTCTTCTCTTTCTACTACAGTACACCACACTTTCGGAGTCACCTAGTGCAG”, the binding signal was 9220 fluorescence intensity (a.u.).

As to “TTTCGTATGGATCGAGATTAAGCCACTTTAGCATCGTTCGCGGAGTCACCTAGTGCAG”, the binding signal is 8350 fluorescence intensity (a.u.).

Take “GCCATCGATTTTGCTATATATTTGTCGATAAATTTTTCTCCGGAGTCACCTAGTGCAG”: the binding signal is 13000 fluorescence intensity (a.u.).

In the case of “ATATTCATTATAATATATCATATTATTTTTTACAAAATCTCGGAGTCACCTAGTGCAG”, the binding signal is 8120 fluorescence intensity (a.u.).

As to “GGAGGGTGGAGGGCGGAGGACGGAGGTGGTGGCGCCGCGCCGGAGTCACCTAGTGCAG”, the binding signal was 9550 fluorescence intensity (a.u.).
